{
  "sequences": {"note": "Protein sequences, listed by entry. Tags and fused reporters are not part of them. Lines headed by an entry give the natural chain unless they say otherwise; changes in a name come on top.", "UniProt Q9WV30": "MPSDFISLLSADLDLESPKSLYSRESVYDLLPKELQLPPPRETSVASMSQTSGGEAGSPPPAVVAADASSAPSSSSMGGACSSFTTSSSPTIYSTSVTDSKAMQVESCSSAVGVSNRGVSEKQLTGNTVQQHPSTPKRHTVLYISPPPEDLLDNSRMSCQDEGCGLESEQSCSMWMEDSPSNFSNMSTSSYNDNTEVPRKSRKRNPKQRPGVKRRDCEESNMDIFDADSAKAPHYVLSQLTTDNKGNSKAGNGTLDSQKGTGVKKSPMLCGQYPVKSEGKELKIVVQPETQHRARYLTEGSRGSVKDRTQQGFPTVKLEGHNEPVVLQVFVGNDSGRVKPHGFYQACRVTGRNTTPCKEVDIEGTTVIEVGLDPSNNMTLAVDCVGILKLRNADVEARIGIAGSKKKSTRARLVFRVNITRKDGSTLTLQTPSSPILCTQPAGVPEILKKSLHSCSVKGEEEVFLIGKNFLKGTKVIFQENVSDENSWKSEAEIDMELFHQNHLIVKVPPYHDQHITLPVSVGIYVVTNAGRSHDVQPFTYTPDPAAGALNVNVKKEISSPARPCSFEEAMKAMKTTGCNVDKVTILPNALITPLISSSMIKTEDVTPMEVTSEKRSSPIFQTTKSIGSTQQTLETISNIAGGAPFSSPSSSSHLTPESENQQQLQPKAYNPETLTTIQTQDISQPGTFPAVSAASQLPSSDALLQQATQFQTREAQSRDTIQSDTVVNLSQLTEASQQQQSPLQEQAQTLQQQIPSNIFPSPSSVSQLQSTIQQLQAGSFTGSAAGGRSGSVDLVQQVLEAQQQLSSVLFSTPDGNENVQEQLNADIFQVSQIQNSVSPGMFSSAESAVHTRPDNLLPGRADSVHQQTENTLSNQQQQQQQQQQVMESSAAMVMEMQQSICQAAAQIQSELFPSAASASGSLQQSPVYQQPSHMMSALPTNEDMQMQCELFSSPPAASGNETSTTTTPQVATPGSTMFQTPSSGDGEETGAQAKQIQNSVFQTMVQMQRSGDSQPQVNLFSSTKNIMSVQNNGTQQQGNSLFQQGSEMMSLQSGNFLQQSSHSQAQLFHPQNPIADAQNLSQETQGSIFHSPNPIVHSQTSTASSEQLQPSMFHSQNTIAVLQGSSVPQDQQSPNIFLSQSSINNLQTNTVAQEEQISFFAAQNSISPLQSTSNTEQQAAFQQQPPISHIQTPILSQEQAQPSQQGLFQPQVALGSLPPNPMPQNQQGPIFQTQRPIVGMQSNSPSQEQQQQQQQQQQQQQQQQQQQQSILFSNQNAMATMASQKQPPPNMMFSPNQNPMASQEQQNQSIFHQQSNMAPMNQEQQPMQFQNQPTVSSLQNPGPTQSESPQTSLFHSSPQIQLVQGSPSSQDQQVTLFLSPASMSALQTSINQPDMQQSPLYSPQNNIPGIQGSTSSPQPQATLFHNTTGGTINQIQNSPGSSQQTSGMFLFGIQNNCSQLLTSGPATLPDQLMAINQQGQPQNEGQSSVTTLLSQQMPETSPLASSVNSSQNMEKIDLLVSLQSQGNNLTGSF"},
  "source": "paper PMC9602048",
  "molecular_target": "NFAT5 (nuclear factor of activated T cells 5) (UniProt Q9WV30)",
  "experiment": "EMSA supershift",
  "conditions": "NFAT5 monoclonal antibody, low or high dose, IgG as control; Viagene non-radioactive EMSA kit, biotin probe, nuclear extract, 6% native polyacrylamide gel; pH and temperature not stated; protein in an extract",
  "note": "For at least one entry, the source does not settle the construct or the ends of the probe. Where cells or extracts were used, other partners may take part.",
  "data": [
    {"sequence": "TTTATCCCAGGGAAACCTTCACAGTGCATTC (double strand) [WNT4 promoter -3015 G allele probe (NFAT5 probe)]", "values": [
      {"measurement": "binding result", "result": "binds"}
    ]}
  ]
}
